For at least one compound, name, drawing or mass did not settle the structure.
Experiments:
Format in all cases: cell-based, human
[1] = test system: association of KRS with EPRS; experiment: Co-immunoprecipitation of KRS with EPRS; settings: A549 cells pre-treated with inhibitor, with or without laminin
[2] = test system: association of KRS with 67LR; experiment: Laminin-induced association of KRS with 67LR (co-immunoprecipitation of Myc-KRS); settings: A549 cells transfected with Myc-KRS, pre-treated 3 hours, laminin 1 hour
A549 cells = experiment: Laminin-dependent membrane translocation of KRS and 67LR with kinase inhibitors; settings: inhibitor 3 hours then laminin 1 hour
Protocol: (§1) In FIG. 7, A549 cells were treated with laminin (10 μg/ml), and the levels of 67LR, 37LRP and KRS were determined by western blotting at the indicated times. Hsp90 and cadherin (Cad) were used as markers for cytoplasm and membrane, respectively. In FIG. 8, A549 cells untreated or treated with laminin for 1 hour were subjected to immunofluorescence staining with anti-67LR (MLuC5, Santacruz, sc-59732) (red) and KRS antibodies (green). In FIG. 9, A549 cells were treated with U73122 (U), staurosporin (ST) and LY294002 (LY) that inhibit PLC-gamma, PKC and PI3K, respectively, for 3 hours, and then treated with laminin for 1 hour. Then, it was determined how these kinase inhibitors would affect the cytoplasm and membrane of 67LR and KRS. In FIG. 10, A549 cells were transfected with Myc-KRS, and incubated for 24 hours. Then, the cells were treated with the indicated drugs and then with laminin as above. Myc-KRS was immunoprecipitated, and immunoblotted with anti-p-Thr, -Ser, and -Tyr antibodies. In FIG. 11, A549 cells were transfected with Myc-KRS, and cultured for 24 hours. […] Myc-KRS was immunoprecipitated, and co-precipitation of 67LR was determined by western blotting. […] EPRS (glutamyl-prolyl-tRNA synthetase) was immunoprecipitated with its specific antibody (AbCam), and co-precipitation of KRS was determined by western blotting (upper). […]

KRS = experiment: Laminin-induced phosphorylation of KRS (immunoblot p-Thr, -Ser, -Tyr); settings: A549 cells transfected with Myc-KRS, inhibitor then laminin
Protocol: as §1

O=c1cc(N2CCOCC2)oc2c(-c3ccccc3)cccc12 [LY294002]
KRS bound to EPRS [1]: not affected by laminin treatment | laminin-induced association of KRS with 67LR [2]: inhibited | Laminin-dependent increase of KRS and 67LR in the membrane fraction (A549 cells): inhibited | laminin-induced phosphorylated KRS at threonine and serine (KRS): blocked

From US10130611B2, “Use of benzo-heterocycle derivatives for preventing and treating cancer or for inhibiting cancer metastasis” (MEDICINAL BIOCONVERGENCE RESEARCH CENTER, priority 2009, dated 2018)
